Legend:
[1] = test system: c-Src; assay: Kinase profiling, c-Src; format: biochemical; settings: blank wells, baseline 0% kinase activity remaining
Experimental: (§1) Non-cell-based kinase profiling assays were performed by Eurofins (France). All compounds were prepared to 50 × final assay concentration in 100% DMSO. This working stock of the compound was added to assay wells as the first component in the reaction, followed by the remaining components as detailed in the specific assay protocols below. In the standard KinaseProfiler service, there was no pre-incubation step between the compound and the kinase prior to initiation of the reaction. Control wells contained all components of the reaction, except the compound of interest; however, DMSO (at a final concentration of 2%) was included in these wells to control for solvent effects. […] The reference inhibitors for each kinase are indicated in the methods for each kinase assay. […] Kinase activities were assessed in the presence of compounds at a concentration range of 0.003 -10 uM and the following kinases were tested: c-Src, Lck, Jak1, Jak2, Tyk2, CaMKIV and HPK1 (MAP4K1). Reactions between IK14004, substrates and MgAcetate/[γ^33P-ATP] mixes for each respective kinase were stopped by the addition of phosphoric acid and reaction mixtures spotted on P30 filtermats for scintillation according to the detailed methods available from Eurofins. The activities of Lck and c-Src were also assessed in the presence of the unconjugated components of IK14004, i.e., […] […]

[2] = test system: JAK2; assay: Kinase profiling, JAK2; format: biochemical; settings: blank wells, baseline 0% kinase activity remaining
Experimental: as §1

With `CN[C@@H]1C[C@H]2O[C@@](C)([C@@H]1OC)n1c3ccccc3c3c4c(c5c6ccccc6n2c5c31)C(=O)NC4` [staurosporine, reference compound] the “c-Src activity, reference inhibitor” value [1] was “abolished kinase activity” and the “JAK2 activity, reference inhibitor” value [2] was “abolished kinase activity”.
